Library compounds against nucleic acid targets

Data from the ROBIN nucleic acid binder screens, doi:10.1002/anie.202211358.

Oligonucleotides screened, 5′ to 3′:
T1: PreQ1 riboswitch RNA pseudoknot, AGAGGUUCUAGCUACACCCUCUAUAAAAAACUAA. From B. subtilis. Hit rate about 0.7% of about 24,000 compounds.
T2: SAM-II riboswitch RNA pseudoknot, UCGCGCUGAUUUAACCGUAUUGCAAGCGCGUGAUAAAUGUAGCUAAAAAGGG. Hit rate about 1% of about 21,000 compounds.

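Each compound is printed as two spots on a slide made to bind it covalently, so it has no test concentration; the read-out is fluorescence of the bound, labelled oligonucleotide. The data file lists only calls. An earlier report of the laboratory on the PreQ1, TPP and SAM-II riboswitches (doi:10.1038/s41467-019-09493-3) used 1 µM RNA for 2 h and required a mean Z-score above 3 (spot signal-to-noise against the whole library), a score well above that on a control array, and duplicate spots agreeing (coefficient of variation under 100); it then also set aside compounds that hit other targets, which this list keeps. The cut-offs behind this list may differ. These are primary screening calls, not affinities; a compound without a hit may have attached poorly or may still bind in solution.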
Key: hit = hit, no hit = tested without a hit.
The compounds are a random part of those screened.
A target missing from an entry has no call listed here.

Calls for COc1ccc(N(C(=O)Oc2c(C)cccc2C)c2ccnc(Nc3ccc(N4CCN(C)CC4)cc3)n2)c(OC)c1 are T1: no hit; T2: no hit.
Calls for O=C1CCC2(CCCN(C(=O)CCc3nc4ccccc4[nH]3)C2)CN1CCO (centres undefined) are T1: no hit; T2: no hit.
Calls for CCOC(=O)c1nc(Nc2cc(Cl)ccc2O)c2ccccc2n1 are T1: no hit; T2: no hit.
Calls for O=C(CNCCN1CCCOC1=O)NC1CCCCCCC1 are T1: no hit; T2: no hit.
Calls for CCc1ccc(CNc2ccc3c(c2)ncn3CC)cc1 are T1: no hit; T2: no hit.
Calls for CN(Cc1nc(-c2cccnc2)no1)C(=O)CCc1n[nH]c(N)n1 are T1: no hit; T2: no hit.
Calls for Nc1ccc2nn(-c3cc([N+](=O)[O-])ccc3O)nc2c1 are T1: no hit; T2: no hit.
Calls for CC(=O)c1cccc(Nc2c3c(nc4ccccc24)CCC3)c1 are T1: no hit; T2: no hit.
Calls for CCN1CCCC1CNC(=O)c1cc(S(N)(=O)=O)ccc1OC (centres undefined) are T1: no hit; T2: no hit.
Calls for Cc1ccc(C)c(NC(=O)Cn2nnc(C(=O)Nc3c(C)cccc3C)c2N)c1 are T1: no hit; T2: no hit.
Calls for COc1ccc(C(=O)O)cc1NCc1ccccn1 are T1: no hit; T2: no hit.
Calls for CCOC(=O)c1cnc2c(OC)cccc2c1Nc1c(F)cccc1F are T1: no hit; T2: no hit.
Calls for Cn1c(N2CCC3(CC2)OCCCC3O)nc2c1c(=O)[nH]c(=O)n2C (centres undefined) are T1: no hit; T2: no hit.
Calls for COCC(=O)Nc1ccc(C)c(NC(=O)N(C)[C@H]2COC[C@@H]2O)c1 are T1: no hit; T2: no hit.
Calls for COc1ccc(OC)c(NC(=O)CSc2nc3ccc(N)cc3s2)c1 are T1: no hit; T2: no hit.
Calls for Nc1nonc1C(=O)NCCNCc1ccccc1F are T1: no hit; T2: no hit.
Calls for COc1ccccc1-c1ncc(CNC(=O)[C@@]23CNC[C@@H]2CN(C)C3)s1 are T1: no hit; T2: no hit.
Calls for Cc1nnc(SCc2nc(C(O)c3ccccc3)nn2CCO)s1 (centres undefined) are T1: no hit; T2: no hit.
Calls for CSc1c(CC(=O)NCCO)n(C)c2ccccc12 are T1: no hit; T2: no hit.
Calls for CCOC(=O)c1ccc(NC2=C(C(N)=O)S(=O)(=O)c3ccccc32)cc1 are T1: no hit.
Calls for O=C(C1CC2(CCNCC2)CN1)N1CCc2c(nc(CC3CC3)[nH]c2=O)C1 (centres undefined) are T1: no hit; T2: no hit.
Calls for NC1=C(c2nc3ccccc3[nH]2)C(=O)CN1c1cc(Cl)cc(Cl)c1 are T1: no hit.
Calls for COCCNc1ncccc1-c1nc(-c2ccc(OC)cc2)no1 are T1: no hit.
Calls for CCN(CC)CCN1c2ccccc2Sc2ccc3ccccc3c21 are T1: no hit; T2: no hit.
Calls for CCc1ccc(C(=O)NCC2=CCN(CC(C)O)CC2)cc1 (centres undefined) are T1: no hit; T2: no hit.
Calls for O=C(O)c1ccc(Nc2ncnc3scc(-c4ccccc4)c23)cc1 are T1: no hit; T2: no hit.
Calls for OC[C@H]1CN(Cc2ccc(OC(F)(F)F)cc2)C[C@H]1CN1CCOCC1 are T1: no hit; T2: no hit.
Calls for O=C(Nc1cccc(-c2ccccn2)c1)N[C@H]1CC[C@H](O)CC1 are T1: no hit; T2: no hit.
Calls for CCC(O)c1ccc(-c2ccc(C(N)=O)c(Cl)c2)cc1 (centres undefined) are T1: no hit; T2: no hit.
Calls for CC(C)Sc1ccccc1NC(=O)NCCCNc1cccnc1 are T1: no hit; T2: no hit.
Calls for CN(C)[C@@H]1C[C@@H](CO)N(C(=O)Nc2ccc(OC(F)(F)F)cc2)C1 are T1: no hit; T2: no hit.
Calls for CC1=C(C(=O)OC(C)(C)C)C2(C(=O)Nc3ccc(Cl)cc32)C(C#N)=C(N)O1 (centres undefined) are T1: no hit; T2: no hit.
Calls for CCOC(=O)C1=C(N)OC2=C(C(=O)CC(C)(C)C2)C1c1c(F)cccc1F (centres undefined) are T1: no hit; T2: no hit.
Calls for COc1ccccc1N(CC(O)CN1C(=O)NC(C)(C)C1=O)S(=O)(=O)c1ccccc1 (centres undefined) are T1: no hit; T2: no hit.
Calls for CCC(O)c1nc2ccccc2n1CCCOc1cc(C)cc(C)c1 (centres undefined) are T1: no hit.
Calls for C=CCSC(CC)(CC)C(N)=O are T1: no hit; T2: hit.
Calls for CCCCOc1c(C(=O)c2c(F)cc(C)cc2F)cnc2[nH]ncc12 are T1: no hit; T2: no hit.
Calls for Cc1nc(CCN)cc(NCC2CC(=O)N(C3CCCC3)C2)n1 (centres undefined) are T1: no hit; T2: no hit.
Calls for COc1cccc(Nc2c(-c3ccc(C(C)C)cc3)c(=O)c2=O)c1 are T1: no hit.
Calls for O=c1[nH]c(NCCC(c2ccc(F)cc2)c2ccco2)nc2c1CCNC2 (centres undefined) are T1: no hit; T2: no hit.
Calls for CC(C)OC(=O)OCOP(=O)(CO[C@H](C)Cn1cnc2c(N)ncnc21)OCOC(=O)OC(C)C.O=C(O)C=CC(=O)O are T1: no hit; T2: no hit.
Calls for COc1cccc(CCNCc2c(F)cccc2F)c1 are T1: no hit; T2: no hit.
Calls for O=C(O)CCCCCNC1CCS(=O)(=O)C1 (centres undefined) are T1: no hit; T2: no hit.
Calls for O=S(=O)(c1ccc2nc(NCc3cccs3)cnc2c1)N1CCCCC1 are T1: no hit; T2: no hit.
Calls for C=CCNC(=S)Nc1ccc(OC(=O)Nc2ccc(Cl)c(Cl)c2)cc1 are T1: no hit; T2: no hit.
Calls for O=S(=O)(NCC(Nc1ccccc1Br)c1ccccc1)c1ccc(Cl)cc1 (centres undefined) are T1: no hit.
Calls for Nc1ncc(S(=O)(=O)N2CCCCC2)cn1 are T1: no hit; T2: no hit.

Once more, the final 6:

{"smiles": "COc1cccc(CCNCc2c(F)cccc2F)c1", "T1": "no hit", "T2": "no hit"}
{"smiles": "O=C(O)CCCCCNC1CCS(=O)(=O)C1", "stereo": "centres undefined", "T1": "no hit", "T2": "no hit"}
{"smiles": "O=S(=O)(c1ccc2nc(NCc3cccs3)cnc2c1)N1CCCCC1", "T1": "no hit", "T2": "no hit"}
{"smiles": "C=CCNC(=S)Nc1ccc(OC(=O)Nc2ccc(Cl)c(Cl)c2)cc1", "T1": "no hit", "T2": "no hit"}
{"smiles": "O=S(=O)(NCC(Nc1ccccc1Br)c1ccccc1)c1ccc(Cl)cc1", "stereo": "centres undefined", "T1": "no hit"}
{"smiles": "Nc1ncc(S(=O)(=O)N2CCCCC2)cn1", "T1": "no hit", "T2": "no hit"}